Laboratory results reported in US4180501 (dated 1979).

Assay: Boc solid-phase peptide synthesis; Benzhydrylamine resin
Conditions: whole synthesis, scale 1.0 mmole

Row | Substance | isolated mass [mg]
1 | N^α,N^ε -bis(L-tyrosyl-D-alanyl-glycyl-L-phenylalanyl)-L-lysine amide | 440
2 | N^α,N^ε -bis(L-tyrosyl-D-alanyl-glycyl-L-phenylalanyl-L-methionyl)-L-lysine amide | 290
